Literature values in US10596118B2, “Solid dispersions” (Shionogi Inc., priority 2015, dated 2020).

Conditions: pH 6.8; cited from earlier work

COC(=O)C1=C(C)NC(C)=C(C(=O)OC)C1c1ccccc1[N+](=O)[O-] [nifedipine]
maximum enhancement in solubility of solid dispersion forms: 4 fold
